Source: the supplement of paper PMC10849652
The list shows a part of the results.

By UniProt entry, the sequences of proteins in these tests, tags left out. Where a name states a change or a piece, a line headed by the entry shows the natural chain unless it says otherwise.
UniProt Q9BU02: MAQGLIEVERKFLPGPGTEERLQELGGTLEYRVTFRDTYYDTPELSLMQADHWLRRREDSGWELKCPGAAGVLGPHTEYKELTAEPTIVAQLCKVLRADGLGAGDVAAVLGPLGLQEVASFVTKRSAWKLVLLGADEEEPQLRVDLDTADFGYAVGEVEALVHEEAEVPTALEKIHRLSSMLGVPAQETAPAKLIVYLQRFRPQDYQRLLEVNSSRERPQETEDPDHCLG
UniProt Q6NUS6: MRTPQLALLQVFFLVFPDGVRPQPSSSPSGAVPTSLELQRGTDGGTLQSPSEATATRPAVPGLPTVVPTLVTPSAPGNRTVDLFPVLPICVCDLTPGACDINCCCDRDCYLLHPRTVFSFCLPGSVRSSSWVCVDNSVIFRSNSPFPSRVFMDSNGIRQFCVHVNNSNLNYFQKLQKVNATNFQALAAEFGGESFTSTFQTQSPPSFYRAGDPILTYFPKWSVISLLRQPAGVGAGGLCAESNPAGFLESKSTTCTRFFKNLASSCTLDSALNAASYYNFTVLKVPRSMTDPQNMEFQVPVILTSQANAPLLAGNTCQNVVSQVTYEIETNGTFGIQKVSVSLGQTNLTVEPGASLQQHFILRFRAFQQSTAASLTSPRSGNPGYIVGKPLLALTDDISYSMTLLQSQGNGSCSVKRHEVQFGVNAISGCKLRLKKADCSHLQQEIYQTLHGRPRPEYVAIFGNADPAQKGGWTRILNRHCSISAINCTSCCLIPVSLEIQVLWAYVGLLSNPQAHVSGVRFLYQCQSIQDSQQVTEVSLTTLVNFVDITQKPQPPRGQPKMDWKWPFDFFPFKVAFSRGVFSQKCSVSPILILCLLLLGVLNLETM
UniProt Q5JUR7: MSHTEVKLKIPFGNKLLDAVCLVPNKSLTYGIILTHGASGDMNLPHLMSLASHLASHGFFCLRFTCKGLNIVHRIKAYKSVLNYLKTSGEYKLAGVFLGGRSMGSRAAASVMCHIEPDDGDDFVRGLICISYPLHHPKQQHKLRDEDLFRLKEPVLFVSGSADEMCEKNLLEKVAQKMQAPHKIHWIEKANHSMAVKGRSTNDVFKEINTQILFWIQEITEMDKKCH
UniProt P20226, whole entry, looked up: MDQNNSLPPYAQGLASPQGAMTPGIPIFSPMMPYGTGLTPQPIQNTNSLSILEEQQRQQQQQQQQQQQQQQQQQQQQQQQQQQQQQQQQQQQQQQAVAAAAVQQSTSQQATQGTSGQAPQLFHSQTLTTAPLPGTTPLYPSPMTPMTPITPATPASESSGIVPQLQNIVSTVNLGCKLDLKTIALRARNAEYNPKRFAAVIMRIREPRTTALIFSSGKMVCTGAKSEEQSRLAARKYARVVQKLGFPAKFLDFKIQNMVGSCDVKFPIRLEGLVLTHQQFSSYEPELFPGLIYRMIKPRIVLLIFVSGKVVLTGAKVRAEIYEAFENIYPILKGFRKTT
UniProt Q9P0N9: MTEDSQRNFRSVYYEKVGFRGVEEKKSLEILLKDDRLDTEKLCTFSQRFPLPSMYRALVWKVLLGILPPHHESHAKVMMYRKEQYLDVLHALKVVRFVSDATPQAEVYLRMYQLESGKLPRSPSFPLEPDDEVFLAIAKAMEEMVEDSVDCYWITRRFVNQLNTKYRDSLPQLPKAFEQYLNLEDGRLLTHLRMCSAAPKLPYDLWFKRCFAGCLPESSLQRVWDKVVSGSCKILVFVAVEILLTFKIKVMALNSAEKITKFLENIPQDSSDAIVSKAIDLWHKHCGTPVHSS
UniProt Q9H7E2: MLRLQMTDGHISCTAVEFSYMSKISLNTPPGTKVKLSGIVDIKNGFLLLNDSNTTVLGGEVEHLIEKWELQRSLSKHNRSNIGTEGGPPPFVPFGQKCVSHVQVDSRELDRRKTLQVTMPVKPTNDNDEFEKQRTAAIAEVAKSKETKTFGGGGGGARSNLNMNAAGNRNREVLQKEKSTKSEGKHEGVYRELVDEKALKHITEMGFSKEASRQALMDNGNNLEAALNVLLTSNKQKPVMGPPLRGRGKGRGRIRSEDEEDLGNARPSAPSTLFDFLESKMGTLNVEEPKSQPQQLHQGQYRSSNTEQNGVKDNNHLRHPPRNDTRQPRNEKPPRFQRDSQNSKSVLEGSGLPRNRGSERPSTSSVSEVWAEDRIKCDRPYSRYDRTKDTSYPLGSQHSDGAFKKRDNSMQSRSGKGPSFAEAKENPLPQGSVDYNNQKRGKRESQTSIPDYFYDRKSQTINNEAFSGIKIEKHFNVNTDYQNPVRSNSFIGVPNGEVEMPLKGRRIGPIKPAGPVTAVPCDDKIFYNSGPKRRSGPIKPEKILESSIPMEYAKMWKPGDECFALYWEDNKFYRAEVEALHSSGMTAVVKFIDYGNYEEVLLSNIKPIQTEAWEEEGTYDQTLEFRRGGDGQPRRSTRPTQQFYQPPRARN
UniProt Q9NUJ3: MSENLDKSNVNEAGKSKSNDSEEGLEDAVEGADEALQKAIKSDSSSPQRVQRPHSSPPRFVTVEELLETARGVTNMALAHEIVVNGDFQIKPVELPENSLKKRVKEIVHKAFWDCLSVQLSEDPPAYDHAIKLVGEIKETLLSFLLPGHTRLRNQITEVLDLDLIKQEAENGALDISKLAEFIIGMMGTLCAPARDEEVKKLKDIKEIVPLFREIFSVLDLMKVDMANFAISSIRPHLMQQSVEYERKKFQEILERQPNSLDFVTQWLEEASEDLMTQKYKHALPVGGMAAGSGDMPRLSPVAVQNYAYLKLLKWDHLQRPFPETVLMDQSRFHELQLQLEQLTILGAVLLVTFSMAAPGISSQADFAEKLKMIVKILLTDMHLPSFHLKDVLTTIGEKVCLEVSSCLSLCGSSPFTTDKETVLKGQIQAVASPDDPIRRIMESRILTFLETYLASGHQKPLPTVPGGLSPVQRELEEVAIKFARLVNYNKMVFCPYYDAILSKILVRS
UniProt Q9BYX2: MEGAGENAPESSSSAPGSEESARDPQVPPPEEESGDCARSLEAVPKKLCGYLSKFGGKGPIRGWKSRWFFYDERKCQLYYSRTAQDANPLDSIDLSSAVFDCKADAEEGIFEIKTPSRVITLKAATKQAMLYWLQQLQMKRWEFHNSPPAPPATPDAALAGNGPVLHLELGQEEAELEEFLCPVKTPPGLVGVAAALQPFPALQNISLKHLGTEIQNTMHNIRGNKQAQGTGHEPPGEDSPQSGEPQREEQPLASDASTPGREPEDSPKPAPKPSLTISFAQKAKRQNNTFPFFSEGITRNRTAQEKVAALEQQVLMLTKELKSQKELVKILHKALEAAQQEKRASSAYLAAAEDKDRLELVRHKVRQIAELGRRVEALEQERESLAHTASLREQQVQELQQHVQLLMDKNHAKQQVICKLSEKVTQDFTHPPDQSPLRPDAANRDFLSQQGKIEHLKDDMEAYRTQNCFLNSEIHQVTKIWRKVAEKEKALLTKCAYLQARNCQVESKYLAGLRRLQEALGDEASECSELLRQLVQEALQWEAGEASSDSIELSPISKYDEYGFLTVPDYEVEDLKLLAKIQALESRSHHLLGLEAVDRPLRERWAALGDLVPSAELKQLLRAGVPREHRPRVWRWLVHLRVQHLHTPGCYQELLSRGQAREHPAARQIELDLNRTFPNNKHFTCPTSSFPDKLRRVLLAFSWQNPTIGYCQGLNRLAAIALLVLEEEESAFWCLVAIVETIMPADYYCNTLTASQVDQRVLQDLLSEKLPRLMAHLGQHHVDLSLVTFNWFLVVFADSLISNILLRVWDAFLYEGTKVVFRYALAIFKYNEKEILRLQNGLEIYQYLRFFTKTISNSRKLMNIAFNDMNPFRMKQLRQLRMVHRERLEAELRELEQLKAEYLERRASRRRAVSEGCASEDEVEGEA
UniProt Q8IYN2: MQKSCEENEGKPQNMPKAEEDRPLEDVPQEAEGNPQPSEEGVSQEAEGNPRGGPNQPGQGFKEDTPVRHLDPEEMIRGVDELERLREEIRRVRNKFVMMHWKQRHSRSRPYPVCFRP
UniProt Q3MII6: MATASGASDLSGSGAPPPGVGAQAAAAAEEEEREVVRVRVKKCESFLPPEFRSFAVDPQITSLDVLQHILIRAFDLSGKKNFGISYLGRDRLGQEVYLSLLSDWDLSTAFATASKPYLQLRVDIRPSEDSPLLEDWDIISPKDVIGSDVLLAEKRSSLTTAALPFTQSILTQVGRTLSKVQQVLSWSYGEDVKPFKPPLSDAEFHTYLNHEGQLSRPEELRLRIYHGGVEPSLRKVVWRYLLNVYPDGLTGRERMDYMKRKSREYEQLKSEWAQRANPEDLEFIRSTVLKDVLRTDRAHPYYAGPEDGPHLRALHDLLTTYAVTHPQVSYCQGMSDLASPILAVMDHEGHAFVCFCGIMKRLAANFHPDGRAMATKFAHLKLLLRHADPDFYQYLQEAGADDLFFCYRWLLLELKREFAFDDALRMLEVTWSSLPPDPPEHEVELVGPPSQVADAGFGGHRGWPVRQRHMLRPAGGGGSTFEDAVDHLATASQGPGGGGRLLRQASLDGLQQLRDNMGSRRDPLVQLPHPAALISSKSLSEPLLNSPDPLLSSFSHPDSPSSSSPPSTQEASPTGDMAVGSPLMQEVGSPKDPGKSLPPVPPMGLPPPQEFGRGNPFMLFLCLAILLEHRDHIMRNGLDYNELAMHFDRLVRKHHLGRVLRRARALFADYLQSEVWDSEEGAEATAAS
UniProt Q6ZT07: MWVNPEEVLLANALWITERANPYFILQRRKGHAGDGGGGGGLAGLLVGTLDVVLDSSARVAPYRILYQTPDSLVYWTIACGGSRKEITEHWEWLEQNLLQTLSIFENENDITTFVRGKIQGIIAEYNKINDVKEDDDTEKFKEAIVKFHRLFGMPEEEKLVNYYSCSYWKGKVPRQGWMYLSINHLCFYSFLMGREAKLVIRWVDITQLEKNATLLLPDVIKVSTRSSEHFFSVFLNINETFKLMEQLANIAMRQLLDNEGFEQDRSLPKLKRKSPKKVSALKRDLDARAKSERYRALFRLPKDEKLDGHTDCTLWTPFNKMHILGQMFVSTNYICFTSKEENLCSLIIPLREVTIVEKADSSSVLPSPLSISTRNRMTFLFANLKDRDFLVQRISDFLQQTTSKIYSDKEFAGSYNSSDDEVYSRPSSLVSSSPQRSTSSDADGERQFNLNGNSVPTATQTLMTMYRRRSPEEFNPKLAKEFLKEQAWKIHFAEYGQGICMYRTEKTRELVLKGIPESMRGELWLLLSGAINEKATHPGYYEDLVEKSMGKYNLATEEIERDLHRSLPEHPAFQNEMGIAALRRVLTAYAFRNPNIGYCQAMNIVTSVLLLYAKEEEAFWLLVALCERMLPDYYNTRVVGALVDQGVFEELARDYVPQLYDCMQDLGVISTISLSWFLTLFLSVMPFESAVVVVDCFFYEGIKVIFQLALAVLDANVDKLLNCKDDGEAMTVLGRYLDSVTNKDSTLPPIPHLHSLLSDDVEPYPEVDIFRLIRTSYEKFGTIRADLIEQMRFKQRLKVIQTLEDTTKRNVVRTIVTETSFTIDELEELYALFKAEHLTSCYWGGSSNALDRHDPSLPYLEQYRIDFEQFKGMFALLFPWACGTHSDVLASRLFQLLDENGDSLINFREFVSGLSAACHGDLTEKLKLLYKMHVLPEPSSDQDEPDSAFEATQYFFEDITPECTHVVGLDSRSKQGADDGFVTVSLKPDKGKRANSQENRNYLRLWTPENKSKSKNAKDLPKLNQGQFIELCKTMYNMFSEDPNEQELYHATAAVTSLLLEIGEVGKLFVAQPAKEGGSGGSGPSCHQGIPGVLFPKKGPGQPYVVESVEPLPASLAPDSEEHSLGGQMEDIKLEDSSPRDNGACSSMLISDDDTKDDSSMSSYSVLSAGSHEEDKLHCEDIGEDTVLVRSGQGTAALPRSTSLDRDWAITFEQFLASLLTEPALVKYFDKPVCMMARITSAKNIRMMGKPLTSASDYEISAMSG
UniProt Q9NUW8, whole entry, looked up: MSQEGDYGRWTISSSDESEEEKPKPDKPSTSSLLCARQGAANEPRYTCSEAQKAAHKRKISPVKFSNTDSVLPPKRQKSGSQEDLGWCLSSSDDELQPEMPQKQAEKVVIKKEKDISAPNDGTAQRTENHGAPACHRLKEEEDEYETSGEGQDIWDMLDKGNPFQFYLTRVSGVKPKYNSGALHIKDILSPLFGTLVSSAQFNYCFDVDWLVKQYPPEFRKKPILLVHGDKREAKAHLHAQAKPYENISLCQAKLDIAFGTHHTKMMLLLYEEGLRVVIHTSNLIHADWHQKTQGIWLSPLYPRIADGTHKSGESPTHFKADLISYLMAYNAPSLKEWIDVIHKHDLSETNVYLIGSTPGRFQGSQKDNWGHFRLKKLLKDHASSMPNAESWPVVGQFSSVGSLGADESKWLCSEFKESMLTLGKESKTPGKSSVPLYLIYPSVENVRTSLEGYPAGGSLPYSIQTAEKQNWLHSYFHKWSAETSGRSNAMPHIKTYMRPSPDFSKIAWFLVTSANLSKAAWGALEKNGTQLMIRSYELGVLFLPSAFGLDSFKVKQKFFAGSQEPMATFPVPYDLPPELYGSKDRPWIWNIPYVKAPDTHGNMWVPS

What follows are targets tested with CCCS(=O)(=O)Nc1ccc(F)c(C(=O)c2c[nH]c3ncc(Cl)cc23)c1F (assay: log2 fold change, soluble protein after heating vs DMSO (PISA); higher = thermal stabilisation; K562 cells, 10 uM, 30 min; active = over 0.2 and 3.5 SD of the protein, either way, in both replicates (recomputed)).
Procedure, shortened: (§1)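 For each measurement, 10 μM compound was applied for 30 min to K562 cells at 2×10^6 cells/mL. Aliquots were heated for 3 min across 48°C-58°C, pooled, and extracted in PBS with 0.5% NP-40 at 4°C; the supernatant after 21,000xg for 90 min was soluble protein. This was quantified by TMTpro 16plex LC-MS/MS with channel sums equalised, and thermal stability was reported relative to control samples from duplicates, on a log2 fold-change scale.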

log2 fold change, inactive:
THTPA (UniProt Q9BU02) 0.052
TIFA (UniProt Q96CG3) -0.011
THEMIS2 (UniProt Q5TEJ8) -0.045
TCTN3 (UniProt Q6NUS6) 0.028
TEX30 (UniProt Q5JUR7) 0.037
TBP (UniProt P20226) -0.026
TBCK (UniProt Q8TEA7) 0.19
TFAP4 (UniProt Q01664) -0.08
TENM4 (UniProt Q6N022) -0.042
TCF25 (UniProt Q9BQ70) -0.023
TBC1D7 (UniProt Q9P0N9) 0.132
TLCD3A (UniProt Q8TBR7) 0.004
TDRD3 isoform 3 (UniProt Q9H7E2) -0.04
TGM2 (UniProt A2A299) 0.054
TCF4 isoform 3 (UniProt P15884) -0.195
TCP11L1 (UniProt Q9NUJ3) 0.026
TBX1 isoform 3 (UniProt O43435) -0.121
TCEAL4 isoform 2 (UniProt Q96EI5) -0.045

These targets were tested with CCCc1cc(C)[nH]c(=O)c1CNC(=O)c1cc(-c2ccnc(N3CCN(C)CC3)c2)cc2c1cnn2C(C)C in the same assay as above.
Procedure, shortened: as §1

log2 fold change, inactive:
THTPA (UniProt Q9BU02) -0.167
TEX30 (UniProt Q5JUR7) -0.119
TBP (UniProt P20226) -0.154
TC2N (UniProt Q8N9U0) -0.098
TGDS (UniProt O95455) -0.059
TBC1D2B (UniProt Q9UPU7) 0.017
TCF25 (UniProt Q9BQ70) -0.008
TFDP2 (UniProt Q14188) 0.088
TDRD7 (UniProt Q8NHU6) -0.255
TDRD3 isoform 3 (UniProt Q9H7E2) 0.057
TGM2 (UniProt A2A299) -0.604
TBC1D2 (UniProt Q9BYX2) 0.11
TCEAL8 (UniProt Q8IYN2) -0.065
TCP11L1 (UniProt Q9NUJ3) -0.066
THAP9 (UniProt Q9H5L6) -0.463
TET2 (UniProt Q6N021) -0.193

Each target was assayed with CCN(CC)Cc1ccc2cc(COC(=O)Nc3ccc(C(=O)NO)cc3)ccc2c1 [givinostat] in the same assay as above.
Procedure, shortened: as §1

log2 fold change, inactive:
THTPA (UniProt Q9BU02) -0.061
TIFA (UniProt Q96CG3) -0.06
TEX30 (UniProt Q5JUR7) -0.146
TBCK (UniProt Q8TEA7) 0.058
TCIRG1 (UniProt Q13488) 0.03
TGDS (UniProt O95455) -0.164
TEX10 (UniProt Q9NXF1) -0.128
TBC1D7 (UniProt Q9P0N9) 0.249
TDRD7 (UniProt Q8NHU6) -0.023
TGM2 (UniProt A2A299) 0.129
TBC1D25 (UniProt Q3MII6) 0.036
TCEAL8 (UniProt Q8IYN2) 0.057
TBC1D9 (UniProt Q6ZT07) -0.028
TCP11L1 (UniProt Q9NUJ3) 0.355
THAP12 (UniProt O43422) -0.079
TDP1 (UniProt Q9NUW8) 0.112
TCEAL4 isoform 2 (UniProt Q96EI5) 0.04

What follows are targets tested with CCN(CCCOc1ccc2c(Nc3cc(CC(=O)Nc4cccc(F)c4)[nH]n3)ncnc2c1)CCOP(=O)(O)O [barasertib] in the same assay as above.
Procedure, shortened: as §1

log2 fold change, inactive:
THTPA (UniProt Q9BU02) 0.203
TIGAR (UniProt Q9NQ88) -0.257
TCTN3 (UniProt Q6NUS6) -0.224
TEX30 (UniProt Q5JUR7) 0.019
TBP (UniProt P20226) -0.067
TCIRG1 (UniProt Q13488) 0.005
TFAP4 (UniProt Q01664) 0.006
TLE3 (UniProt Q04726) 0.29
TBC1D2B (UniProt Q9UPU7) 0.071
TEX10 (UniProt Q9NXF1) 0.15
TFDP2 (UniProt Q14188) -0.047
TBC1D7 (UniProt Q9P0N9) 0.037
TDRD3 isoform 3 (UniProt Q9H7E2) -0.156
TBC1D25 (UniProt Q3MII6) 0.42
TCF20 (UniProt Q9UGU0) 0.121
TBC1D9 (UniProt Q6ZT07) -0.004
THAP9 (UniProt Q9H5L6) 0.121
